Screen size: about 31,000 sequences; about 1,400 (4.5%) were called active.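 Rule for the calls: active = median seed-adjusted z-score above 1 or below -1; inactive = the rest.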 The list shows a part of the results.
Experiment: Novel Modifiers of Survival Motor Neuron (SMN) Protein: Gene Identification via Genome-wide siRNA Screen;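 note: luminescence tracks full-length SMN protein made from the SMN2 reporter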
Conditions: HEK293T SMN2-luciferase reporter, siRNA knockdown, 72 h; actives lie on both sides
In short: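 Genome-wide siRNA screen (10418 genes, 3 siRNAs each, 1 pmol per well) by reverse transfection in HEK293T cells stably carrying an SMN2-luciferase reporter; luminescence after 72 hours, normalized to negative-control siRNA, log10-transformed, MAD-scored.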
In the case of GAUGAAGUAAUAGGAGUUATT against EIF4E3, the median seed-adjusted z-score is reported as inactive: 0.
In the case of CCAGGAGAUCUUUGCCUUUTT against SLC4A3, the median seed-adjusted z-score is reported as inactive: -0.7.
For AGUGUCAUCUCAACUCGAATT against NFIB, the median seed-adjusted z-score was inactive: 0.1.
For GGUGAUGAGAUGACCCGUATT against IDH2, the median seed-adjusted z-score was inactive: 0.0592.
In the case of GUGCAUUGAUGAGCAAUUATT against TRIM29, the median seed-adjusted z-score is reported as inactive: 0.331.
In the case of GGAGACAUCUGACCCAGCATT against ARHGAP9, the median seed-adjusted z-score is reported as inactive: 0.
In the case of AGGAGAUUCUGACCAAUGATT against DNAJC12, the median seed-adjusted z-score is reported as inactive: 0.248.
In the case of GCAACUUCCUCUCCACUCUTT against ZDHHC18, the median seed-adjusted z-score is reported as inactive: -0.309.
In the case of AGGUACUAUUUCUUGAUCATT against REXO4, the median seed-adjusted z-score is reported as inactive: -0.166.
With GGAGUUAAACAUAGAUGUATT against COPS2 the median seed-adjusted z-score was inactive: 0.202.
With CUCAGAGAAUAAUCACAAATT against PER2 the median seed-adjusted z-score was inactive: -0.113.
For CGGAAAAUCAGCAACAUCATT against EPS8L2, the median seed-adjusted z-score was inactive: -0.497.
In the case of CGAGGAGCCUGCCUUCUUUTT against SSTR3, the median seed-adjusted z-score is reported as inactive: 0.
With GCAAGAAGGAUGAAUCGGATT against PBRM1 the median seed-adjusted z-score was inactive: -0.118.
In the case of GAGAUGAUCCUGAAACGCATT against ARL4C, the median seed-adjusted z-score is reported as inactive: -0.61.
In the case of AGGAGCUUGUUGAUCCCUATT against SLC7A8, the median seed-adjusted z-score is reported as inactive: -0.134.
In the case of CACCAGCUGUUAUAUUAAATT against LHX8, the median seed-adjusted z-score is reported as inactive: 0.
With GGAAUGUCCAGAGAAGUUATT against ZNF670 the median seed-adjusted z-score was inactive: 0.
For GGUUGAAGAGAGUAAAGAUTT against SNAP25, the median seed-adjusted z-score was inactive: 0.
For GGGUAUCCAUCAUCAAUCATT against WHSC1L1, the median seed-adjusted z-score was inactive: -0.283.
With GCCCAACAAGUGUACGUUUTT against GLIS3 the median seed-adjusted z-score was inactive: -0.00906.
For CCAUCAUCCGAAACGGUCATT against ATP2B4, the median seed-adjusted z-score was inactive: 0.
For GAUGUUCAGUCAAAGUUCATT against ZNF594, the median seed-adjusted z-score was inactive: 0.491.
For GGAUGGUCGGAUUCUGAAATT against ITPKC, the median seed-adjusted z-score was inactive: 0.218.
With GGUUCCAAGAGGAUGAAUATT against ZNF502 the median seed-adjusted z-score was inactive: 0.348.
For CCUUGCCUCUAUGAGAUCATT against CHCHD2, the median seed-adjusted z-score was inactive: 0.0884.
For GAGGUCAUCUGCAAUAGUATT against CHST2, the median seed-adjusted z-score was inactive: 0.
For CAGUGACCCGGAUCCUCUATT against RHCG, the median seed-adjusted z-score was inactive: 0.375.
In the case of ACAUCAAUCCUGAAAUGCATT against TFEB, the median seed-adjusted z-score is reported as inactive: 0.34.
For CAAACCAUAUCUUACCGUUTT against PLCB1, the median seed-adjusted z-score was inactive: 0.0735.
For GCAUUAUUGUUGGGCUAUUTT against MORF4L2, the median seed-adjusted z-score was inactive: 0.389.
For GCAUCGAAGGAUUCAUACATT against ZNF354A, the median seed-adjusted z-score was inactive: 0.401.
With GGGAGCACCUGAAUCCUAATT against MUS81 the median seed-adjusted z-score was inactive: 0.
In the case of CGGAAAGACAGGUCGAAAATT against ZCCHC4, the median seed-adjusted z-score is reported as inactive: -0.0614.
In the case of CCAAGGCUGUCAUUUUAUATT against WRNIP1, the median seed-adjusted z-score is reported as inactive: 0.00972.
With GCUCAUCCACUAUAACCAUTT against CA10 the median seed-adjusted z-score was inactive: 0.255.
For AAACCUUGCUUUAUAGGAATT against NPFFR2, the median seed-adjusted z-score was inactive: 0.0554.
In the case of GGUUCUCAGUAGUCGAUUUTT against CUL9, the median seed-adjusted z-score is reported as inactive: 0.399.
In the case of GAAAGACUCUAAUCAAAGUTT against ZNF594, the median seed-adjusted z-score is reported as inactive: 0.491.
With CCACUUGUCUGUGAAUUCATT against MPN2 the median seed-adjusted z-score was inactive: 0.108.
With CUGAUUUUCUCAAUAGUGATT against ZNHIT3 the median seed-adjusted z-score was inactive: -0.311.
With UGACAACACUCGCAUGACATT against KRT9 the median seed-adjusted z-score was inactive: 0.545.
For GCAAUCUUGUUGUACACCATT against ZNF432, the median seed-adjusted z-score was inactive: -0.124.
With GCAUGACCAUAAGAUCCUATT against NUAK2 the median seed-adjusted z-score was inactive: -0.0601.
With CCAGGAAACAUUGCCGUAATT against GPR111 the median seed-adjusted z-score was inactive: 0.
For CGAGUACUGUCUCAAGGUATT against TTC9B, the median seed-adjusted z-score was inactive: -0.272.
For CCAGCUUCGGACAACAGUATT against MTSS1, the median seed-adjusted z-score was inactive: 0.175.
In the case of GAUUCAGCGAUAUUGCAAATT against RAB23, the median seed-adjusted z-score is reported as inactive: 0.45.
With CCAGCUCUUCUCUACCACATT against PAQR7 the median seed-adjusted z-score was inactive: -0.0406.
With GCUUCAGAGUGUGAAGUCATT against TXN the median seed-adjusted z-score was inactive: -0.195.
With CUAUGGUACGCGAUCGUCATT against HERC2 the median seed-adjusted z-score was inactive: 0.98.
For CAGUAGAGACAAACAUUUUTT against ZNF394, the median seed-adjusted z-score was inactive: -0.462.
For CACGUAGAAUUAAGACGGATT against VPS4B, the median seed-adjusted z-score was inactive: -0.0992.
With CAACCGGAAUGGGAAAGUUTT against TXNDC1 the median seed-adjusted z-score was inactive: 0.458.
In the case of ACAAAAUUGCUACAUCAAATT against ECHDC1, the median seed-adjusted z-score is reported as inactive: 0.554.
For AGAUGGUGUCCAUCAGUAATT against EMG1, the median seed-adjusted z-score was inactive: -0.0627.
For GCACCAAAGCUUACCGUGATT against STX8, the median seed-adjusted z-score was inactive: 0.475.
For GCACUUUGCUUAUCCCGGATT against AGK, the median seed-adjusted z-score was inactive: -0.312.
With GAGGGAAAGCAAAAGAGUATT against HCCS the median seed-adjusted z-score was inactive: 0.00254.
In the case of UCUCUUUACCGACAAUAUATT against DIABLO, the median seed-adjusted z-score is reported as inactive: 0.913.
For GGAGAACUGUCAAAGGUCATT against NDUFA8, the median seed-adjusted z-score was inactive: -0.752.
With CGACUUCAUUGUAAAGAAATT against LIPF the median seed-adjusted z-score was inactive: 0.54.
In the case of CGAUUACCCGAAUCCGUCATT against RYR3, the median seed-adjusted z-score is reported as inactive: 0.
For GGUCAUAUCUGUUUAUCCATT against UBE2W, the median seed-adjusted z-score was inactive: -0.655.
For GGUAAUAGCUGAGCAUGCATT against ETFA, the median seed-adjusted z-score was inactive: -0.0619.
In the case of GGUGAUCCUAAAAACCGAATT against AKAP3, the median seed-adjusted z-score is reported as inactive: 0.0138.
For AGGACAAGCGGGACCUGAATT against MGAT3, the median seed-adjusted z-score was inactive: -0.118.
In the case of GCAACCUUCUCAUCGAGUATT against TGM2, the median seed-adjusted z-score is reported as inactive: 0.413.
For CUUUGUUAGUCCUAAAGAATT against IGF2BP3, the median seed-adjusted z-score was inactive: -0.636.
In the case of CGACCACUCAUCAAGCCCATT against GATA2, the median seed-adjusted z-score is reported as inactive: 0.623.
In the case of CAACGGUUGAAAAACGUAATT against ZNF285A, the median seed-adjusted z-score is reported as inactive: 0.148.
For CCGUUGCUCUAUCUUCGUATT against SETBP1, the median seed-adjusted z-score was inactive: 0.0232.
For GCUAGACACCGGACCAAAATT against MMP28, the median seed-adjusted z-score was inactive: 0.862.
In the case of AGUGACAACCUUCGAGGUATT against PCDH11Y, the median seed-adjusted z-score is reported as inactive: 0.186.
In the case of GCACUGCAAGGGAAAGAAATT against DNM1, the median seed-adjusted z-score is reported as inactive: 0.217.
For CACAUUAAAGUGUAAAGAATT against PIP3-E, the median seed-adjusted z-score was inactive: 0.676.
In the case of GAAUGUUCCCAAGCUCUCATT against PLA2G7, the median seed-adjusted z-score is reported as inactive: 0.292.
For AGGAGAAUCUGGAUCCGCATT against TGM6, the median seed-adjusted z-score was inactive: 0.0811.
In the case of CGCAUUCUCCAGUCGCACATT against KRT81, the median seed-adjusted z-score is reported as inactive: -0.0955.
For GAAUCUGGACAGUACCACUTT against CSRP1, the median seed-adjusted z-score was inactive: -0.312.
For GGUUACUACCUGAUUCAGATT against GLRA1, the median seed-adjusted z-score was inactive: 0.
With GACAAUCACUGAACGCCGATT against APOE the median seed-adjusted z-score was inactive: 0.0321.
For GUCUCUAAACCAAACCUGATT against ZNF506, the median seed-adjusted z-score was inactive: -0.235.
For GGCUUAACCUGCUAGAAAATT against PAQR9, the median seed-adjusted z-score was inactive: 0.116.
For CACUCUAAGCAUAACUAAATT against ABL1, the median seed-adjusted z-score was inactive: -0.181.
With CCUGACAACCAGUACCUUATT against IFIT2 the median seed-adjusted z-score was inactive: -0.0205.
For GGGAGACCUCGAUCGUGAATT against RASA4, the median seed-adjusted z-score was active: -1.11.
In the case of GGACGGUGGAGAACUCUUUTT against MAPKAPK2, the median seed-adjusted z-score is reported as inactive: -0.543.
For GCUUAGCUGUCUUUCGUUUTT against GGCX, the median seed-adjusted z-score was inactive: -0.362.
With GGUGAACUACUACUAGAUATT against CAB39 the median seed-adjusted z-score was inactive: -0.144.
For ACAUAUUCACGGCCUAUAATT against AJAP1, the median seed-adjusted z-score was inactive: 0.488.
In the case of GUAUAAUCCUCAGAGCAAATT against CXXC1, the median seed-adjusted z-score is reported as inactive: -0.841.
With GCACUUACCAAGUUGGAUATT against ADSS the median seed-adjusted z-score was inactive: -0.272.
For GAGAUGGACUAAUAGGCAATT against COL4A6, the median seed-adjusted z-score was inactive: 0.0681.
For GCCGCAAACCUAUACCCUUTT against SCRT2, the median seed-adjusted z-score was inactive: 0.404.
In the case of GCAUUAGAAUAAUUCGUGATT against SLTM, the median seed-adjusted z-score is reported as inactive: 0.547.
In the case of GGUUCCAACAAAAGACUUUTT against PSMA3, the median seed-adjusted z-score is reported as inactive: -0.81.
For CCACCCUACUAUGCGCACATT against GJA3, the median seed-adjusted z-score was inactive: 0.833.
In the case of AGAAGAUAGUGGAUAAUCUTT against PPCS, the median seed-adjusted z-score is reported as inactive: 0.
In the case of CAAGGGUACUGUUCUCCUATT against SLC4A1, the median seed-adjusted z-score is reported as inactive: -0.861.
For AGUUUAUGGAGAGAAGAGATT against FBL, the median seed-adjusted z-score was inactive: -0.0592.
For AAGAGAAGAUCAAUAUUUATT against TRIM54, the median seed-adjusted z-score was inactive: -0.219.
In the case of GGCUUGCUGUAAUUACCCATT against ABCB1, the median seed-adjusted z-score is reported as inactive: -0.384.
For GGAGCUUUAUAACAACCUUTT against ZNF282, the median seed-adjusted z-score was inactive: 0.274.
For GAGUCUUCUUGGUACCCAATT against NCAN, the median seed-adjusted z-score was inactive: -0.391.
In the case of GAGUUAAGUGAUAAGUAUATT against ZNF639, the median seed-adjusted z-score is reported as inactive: 0.182.
With GAGUGUCCGUGGUUAGGUATT against BACH1 the median seed-adjusted z-score was inactive: -0.404.
In the case of GGUAAACUCAAUGCACAGATT against ELAC1, the median seed-adjusted z-score is reported as inactive: 0.967.
